# Values from PubChem BioAssay AID1259254 (NCATS, 2017)
# Purpose: 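Genome-wide screen for genes that prevent DNA re-replication in cancer cells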 (primary screen)
# Cells: human HCT116 colorectal cancer cells
# Knock-down reagent: single siRNA against human genes
# Duration: 3 days
# Detection: 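Imaged Hoechst DNA stain sorts each cell into a cycle phase by DNA amount; per plate, G2 fraction set to 0% for non-targeting and 100% for GMNN siRNA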
# Scale: G2 robust z-score and G2 cells, % of GMNN control: higher = more G2 cells, more excess DNA replication
# Active means: 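Active siRNAs have a G2 robust z of 5 or more median absolute deviations over the median, which in these data means about 38% or higher of GMNN control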
# In all, the deposit lists about 59,000 reagents; below is an unselected part. About 1,550 of them (2.6%) count as active. 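G2 share is only a proxy for re-replication; each gene was hit by three separate siRNAs, and active genes were retested.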 A number with no mark means an inactive call. Reagents against one gene are numbered here. Further read-outs or replicates are left out here. The record does not give: the amount of reagent.
G2 robust z-score,"G2 cells, % of GMNN control",Target gene,siRNA no.
2.02,17.2,CFAP20,1
-0.285,0.959,CFAP20,2
0.704,7.92,CFAP20,3
4.96,37.9,NLRP8,1
-0.136,2.01,NLRP8,2
-0.543,-0.855,NLRP8,3
-0.977,-3.91,DCLRE1A,1
-0.137,2,DCLRE1A,2
0.0992,3.67,DCLRE1A,3
-1.44,-7.13,OPRM1,1
-0.719,-2.09,OPRM1,2
-0.339,0.581,OPRM1,3
-0.958,-3.77,CCDC27,1
-0.38,0.295,CCDC27,2
-0.399,0.163,CCDC27,3
-0.159,1.85,PPP1R36,1
1.49,13.4,PPP1R36,2
-1.05,-4.42,PPP1R36,3
0.75,8.24,FAM91A3P,1
0.528,6.68,FAM91A3P,2
3.52,27.7,FAM91A3P,3
0.618,7.32,SLC38A2,1
-0.729,-2.16,SLC38A2,2
-0.936,-3.62,SLC38A2,3

Single entries from the list:
SLC38A2 #3, G2 cells, % of GMNN control = -3.62
Value of FAM91A3P #2 in “G2 robust z-score”: 0.528
Result for CCDC27 #2 in “G2 cells, % of GMNN control”: 0.295
SLC38A2 #2, G2 cells, % of GMNN control: -2.16

Further reagents:
G2 robust z-score,"G2 cells, % of GMNN control",Target gene,siRNA no.
-0.585,-1.15,CRIPTO,1
-0.172,1.75,CRIPTO,2
-0.439,-0.121,CRIPTO,3
0.336,5.33,SPSB4,1
0.217,4.49,SPSB4,2
0.362,5.51,SPSB4,3
-0.498,-0.536,ZBED8L,1
0.584,7.07,ZBED8L,2
0.357,5.48,ZBED8L,3
-1.57,-8.08,RENBP,1
3.35,26.5,RENBP,2
0.453,6.16,RENBP,3
-0.933,-3.6,TRIM40,1
1.33,12.3,TRIM40,2
-0.445,-0.164,TRIM40,3
-0.657,-1.65,ZCCHC3,1
0.182,4.25,ZCCHC3,2
-0.574,-1.07,ZCCHC3,3
-0.0379,2.7,MLXIPL,1
3.55,27.9,MLXIPL,2
-1.17,-5.28,MLXIPL,3
0.144,3.98,ICE2P2,1
-0.616,-1.36,ICE2P2,2
-0.809,-2.73,ICE2P2,3
2.22,18.6,H1-9P,1
-1.03,-4.31,H1-9P,2
-0.323,0.693,H1-9P,3
1.54,13.8,TTC14,1
-0.0467,2.64,TTC14,2
2.51,20.6,TTC14,3
-0.552,-0.916,PGBD2,1
-0.915,-3.47,PGBD2,2
0.151,4.03,PGBD2,3
-0.31,0.784,FGFR3,1
-0.95,-3.72,FGFR3,2
-0.36,0.434,FGFR3,3
-0.661,-1.68,CD2AP,1
-0.693,-1.91,CD2AP,2
1.21,11.4,CD2AP,3
-0.961,-3.8,ACSL6,1
6.38 (active),47.9,ACSL6,2
-0.886,-3.27,ACSL6,3
1.26,11.8,ZNF484,1
0.519,6.62,ZNF484,2
1.01,10,ZNF484,3
